Data published in the supplement of paper PMC10849652.
Some of the results follow.

Protein sequences, listed by entry. Tags and fused reporters are not part of them. Lines headed by an entry give the natural chain unless they say otherwise; changes in a name come on top.
UniProt Q16236, whole entry, looked up: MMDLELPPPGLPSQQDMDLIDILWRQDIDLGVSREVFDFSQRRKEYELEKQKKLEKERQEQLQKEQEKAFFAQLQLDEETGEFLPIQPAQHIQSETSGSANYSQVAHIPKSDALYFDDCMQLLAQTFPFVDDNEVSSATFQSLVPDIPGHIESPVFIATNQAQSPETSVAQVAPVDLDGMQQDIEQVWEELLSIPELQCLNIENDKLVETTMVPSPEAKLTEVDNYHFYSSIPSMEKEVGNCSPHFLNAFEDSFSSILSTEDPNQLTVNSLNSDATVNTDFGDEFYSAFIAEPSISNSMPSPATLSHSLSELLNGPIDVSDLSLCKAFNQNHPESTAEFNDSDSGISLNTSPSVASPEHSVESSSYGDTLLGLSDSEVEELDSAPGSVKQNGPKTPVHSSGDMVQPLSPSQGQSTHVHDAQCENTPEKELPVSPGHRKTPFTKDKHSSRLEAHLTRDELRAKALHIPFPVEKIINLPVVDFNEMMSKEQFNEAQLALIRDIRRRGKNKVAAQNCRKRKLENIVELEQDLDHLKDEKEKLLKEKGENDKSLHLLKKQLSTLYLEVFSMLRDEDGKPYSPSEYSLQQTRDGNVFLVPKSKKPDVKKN
UniProt Q7RTP0: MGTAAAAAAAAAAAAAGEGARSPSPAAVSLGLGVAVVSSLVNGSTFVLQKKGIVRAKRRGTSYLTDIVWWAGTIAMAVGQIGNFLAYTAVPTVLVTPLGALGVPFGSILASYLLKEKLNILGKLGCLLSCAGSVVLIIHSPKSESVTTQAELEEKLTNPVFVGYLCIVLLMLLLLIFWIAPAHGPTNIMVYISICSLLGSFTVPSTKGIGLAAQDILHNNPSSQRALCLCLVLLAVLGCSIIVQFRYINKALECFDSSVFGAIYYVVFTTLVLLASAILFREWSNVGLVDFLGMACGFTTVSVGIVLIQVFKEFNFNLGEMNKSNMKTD
UniProt Q12857, whole entry, looked up: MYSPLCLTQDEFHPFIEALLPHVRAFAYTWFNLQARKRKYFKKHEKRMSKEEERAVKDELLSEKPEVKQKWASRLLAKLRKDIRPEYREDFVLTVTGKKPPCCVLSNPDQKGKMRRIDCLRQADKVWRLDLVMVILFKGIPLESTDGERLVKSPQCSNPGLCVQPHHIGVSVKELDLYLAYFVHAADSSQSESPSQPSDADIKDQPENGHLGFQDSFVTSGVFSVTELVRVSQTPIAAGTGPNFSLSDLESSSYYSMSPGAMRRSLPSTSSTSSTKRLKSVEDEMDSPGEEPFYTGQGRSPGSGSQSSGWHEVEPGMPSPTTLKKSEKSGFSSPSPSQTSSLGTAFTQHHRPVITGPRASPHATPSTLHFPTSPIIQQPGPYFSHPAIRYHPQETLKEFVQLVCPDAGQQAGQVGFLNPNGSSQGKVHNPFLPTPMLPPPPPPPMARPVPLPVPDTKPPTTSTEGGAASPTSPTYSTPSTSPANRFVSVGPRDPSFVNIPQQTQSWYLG
UniProt Q86SG6: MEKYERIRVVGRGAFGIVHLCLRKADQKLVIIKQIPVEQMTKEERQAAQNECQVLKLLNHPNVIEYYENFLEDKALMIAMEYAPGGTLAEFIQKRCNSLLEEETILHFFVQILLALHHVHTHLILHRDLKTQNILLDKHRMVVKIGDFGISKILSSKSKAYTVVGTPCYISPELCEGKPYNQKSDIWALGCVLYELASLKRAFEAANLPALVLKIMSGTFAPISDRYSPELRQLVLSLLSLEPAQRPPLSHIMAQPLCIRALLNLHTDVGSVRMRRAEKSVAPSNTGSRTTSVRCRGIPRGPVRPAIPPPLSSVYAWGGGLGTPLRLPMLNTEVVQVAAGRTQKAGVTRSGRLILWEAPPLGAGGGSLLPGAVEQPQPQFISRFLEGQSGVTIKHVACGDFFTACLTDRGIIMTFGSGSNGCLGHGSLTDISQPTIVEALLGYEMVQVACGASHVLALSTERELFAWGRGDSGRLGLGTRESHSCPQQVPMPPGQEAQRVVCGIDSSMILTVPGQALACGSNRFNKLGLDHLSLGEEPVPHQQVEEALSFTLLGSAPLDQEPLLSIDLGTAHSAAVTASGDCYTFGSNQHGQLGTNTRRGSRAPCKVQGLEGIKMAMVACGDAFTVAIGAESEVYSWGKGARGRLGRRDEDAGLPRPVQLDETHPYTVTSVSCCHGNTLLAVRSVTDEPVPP
UniProt Q330K2: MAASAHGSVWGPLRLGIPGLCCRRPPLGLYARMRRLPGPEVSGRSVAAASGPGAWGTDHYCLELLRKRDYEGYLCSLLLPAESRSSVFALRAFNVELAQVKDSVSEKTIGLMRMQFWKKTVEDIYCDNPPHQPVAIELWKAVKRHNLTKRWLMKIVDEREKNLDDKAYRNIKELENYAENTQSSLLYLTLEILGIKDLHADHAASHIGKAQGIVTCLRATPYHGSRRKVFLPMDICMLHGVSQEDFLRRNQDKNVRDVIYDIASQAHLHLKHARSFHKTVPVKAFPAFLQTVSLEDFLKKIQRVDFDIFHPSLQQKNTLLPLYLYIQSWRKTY
UniProt P25963: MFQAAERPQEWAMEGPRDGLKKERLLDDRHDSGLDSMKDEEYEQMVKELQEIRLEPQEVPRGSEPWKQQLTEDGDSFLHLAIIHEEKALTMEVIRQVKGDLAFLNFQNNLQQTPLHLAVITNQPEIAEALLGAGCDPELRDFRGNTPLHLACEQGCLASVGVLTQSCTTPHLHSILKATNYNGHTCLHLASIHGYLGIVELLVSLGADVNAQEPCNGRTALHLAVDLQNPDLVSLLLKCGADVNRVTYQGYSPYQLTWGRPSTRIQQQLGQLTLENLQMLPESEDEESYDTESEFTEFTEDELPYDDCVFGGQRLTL
UniProt O43677, whole entry, looked up: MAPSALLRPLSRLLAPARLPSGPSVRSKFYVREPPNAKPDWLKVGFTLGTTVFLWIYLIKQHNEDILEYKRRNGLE
UniProt Q96JN8: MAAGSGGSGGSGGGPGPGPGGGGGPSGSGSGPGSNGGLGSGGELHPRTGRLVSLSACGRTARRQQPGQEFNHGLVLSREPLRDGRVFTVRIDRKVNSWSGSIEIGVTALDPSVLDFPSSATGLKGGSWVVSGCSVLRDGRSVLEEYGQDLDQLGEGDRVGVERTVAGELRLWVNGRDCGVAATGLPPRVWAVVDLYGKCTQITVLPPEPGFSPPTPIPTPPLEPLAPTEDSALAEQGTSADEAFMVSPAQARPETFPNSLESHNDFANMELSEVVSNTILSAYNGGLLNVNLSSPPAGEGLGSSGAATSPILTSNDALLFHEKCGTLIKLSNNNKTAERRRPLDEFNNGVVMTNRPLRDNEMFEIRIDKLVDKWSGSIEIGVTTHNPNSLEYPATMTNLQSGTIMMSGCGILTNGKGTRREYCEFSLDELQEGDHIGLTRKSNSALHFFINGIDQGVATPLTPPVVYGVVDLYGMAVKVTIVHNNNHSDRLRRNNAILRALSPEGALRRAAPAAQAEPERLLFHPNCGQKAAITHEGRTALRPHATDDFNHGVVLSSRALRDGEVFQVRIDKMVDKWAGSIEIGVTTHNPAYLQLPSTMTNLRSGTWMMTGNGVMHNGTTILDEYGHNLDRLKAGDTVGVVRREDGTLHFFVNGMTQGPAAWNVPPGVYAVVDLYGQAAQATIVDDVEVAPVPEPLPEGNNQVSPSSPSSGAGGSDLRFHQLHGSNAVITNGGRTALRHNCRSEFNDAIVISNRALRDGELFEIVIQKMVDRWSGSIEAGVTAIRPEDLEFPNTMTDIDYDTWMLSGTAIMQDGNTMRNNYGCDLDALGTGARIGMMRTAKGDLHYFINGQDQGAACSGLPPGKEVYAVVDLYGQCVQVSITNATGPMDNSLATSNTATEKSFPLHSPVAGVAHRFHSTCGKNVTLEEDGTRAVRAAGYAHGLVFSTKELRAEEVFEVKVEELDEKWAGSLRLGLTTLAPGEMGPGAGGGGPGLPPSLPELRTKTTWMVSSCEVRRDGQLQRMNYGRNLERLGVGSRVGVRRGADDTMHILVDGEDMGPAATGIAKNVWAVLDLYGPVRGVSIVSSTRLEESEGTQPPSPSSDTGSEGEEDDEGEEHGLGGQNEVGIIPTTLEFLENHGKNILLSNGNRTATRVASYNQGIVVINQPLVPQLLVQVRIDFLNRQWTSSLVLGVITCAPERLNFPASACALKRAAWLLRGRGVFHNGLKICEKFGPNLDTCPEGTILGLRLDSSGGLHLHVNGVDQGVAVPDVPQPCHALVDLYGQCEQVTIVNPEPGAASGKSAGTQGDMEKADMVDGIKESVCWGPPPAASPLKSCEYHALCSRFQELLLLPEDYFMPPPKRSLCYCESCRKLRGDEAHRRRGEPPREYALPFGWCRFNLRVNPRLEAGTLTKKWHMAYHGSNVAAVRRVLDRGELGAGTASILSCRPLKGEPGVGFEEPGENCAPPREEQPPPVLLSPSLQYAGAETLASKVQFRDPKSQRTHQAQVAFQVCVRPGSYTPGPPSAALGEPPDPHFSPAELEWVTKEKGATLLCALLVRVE
UniProt Q5JS37: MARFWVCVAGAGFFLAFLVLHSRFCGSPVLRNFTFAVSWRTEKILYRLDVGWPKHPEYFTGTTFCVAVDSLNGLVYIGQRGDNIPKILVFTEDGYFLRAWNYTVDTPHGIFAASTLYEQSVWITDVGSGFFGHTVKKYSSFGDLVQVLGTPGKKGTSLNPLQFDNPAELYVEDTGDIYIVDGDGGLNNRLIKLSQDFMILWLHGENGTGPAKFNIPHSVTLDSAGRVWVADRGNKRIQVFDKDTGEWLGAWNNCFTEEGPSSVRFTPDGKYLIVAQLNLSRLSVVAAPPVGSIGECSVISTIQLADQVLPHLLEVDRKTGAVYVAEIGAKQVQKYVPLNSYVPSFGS
UniProt Q9BT67: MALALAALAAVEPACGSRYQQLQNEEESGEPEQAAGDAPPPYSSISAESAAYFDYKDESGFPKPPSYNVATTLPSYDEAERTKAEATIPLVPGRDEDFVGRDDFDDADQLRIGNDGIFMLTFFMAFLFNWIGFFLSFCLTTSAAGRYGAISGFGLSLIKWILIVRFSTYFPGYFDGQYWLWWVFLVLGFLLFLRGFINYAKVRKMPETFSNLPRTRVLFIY
UniProt O95167, whole entry, looked up: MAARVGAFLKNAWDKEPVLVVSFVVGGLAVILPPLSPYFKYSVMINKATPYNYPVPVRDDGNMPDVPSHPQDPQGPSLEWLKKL
UniProt Q9UN36: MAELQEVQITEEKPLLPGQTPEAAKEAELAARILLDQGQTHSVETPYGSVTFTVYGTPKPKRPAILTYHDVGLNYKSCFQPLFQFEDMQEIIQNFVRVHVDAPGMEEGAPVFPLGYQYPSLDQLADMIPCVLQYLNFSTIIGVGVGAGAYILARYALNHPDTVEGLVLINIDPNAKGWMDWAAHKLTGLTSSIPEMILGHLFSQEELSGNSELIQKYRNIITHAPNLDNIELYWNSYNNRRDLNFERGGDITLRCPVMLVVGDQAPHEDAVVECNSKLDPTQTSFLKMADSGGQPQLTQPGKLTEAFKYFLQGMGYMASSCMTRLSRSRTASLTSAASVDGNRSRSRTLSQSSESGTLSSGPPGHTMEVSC
UniProt Q16649: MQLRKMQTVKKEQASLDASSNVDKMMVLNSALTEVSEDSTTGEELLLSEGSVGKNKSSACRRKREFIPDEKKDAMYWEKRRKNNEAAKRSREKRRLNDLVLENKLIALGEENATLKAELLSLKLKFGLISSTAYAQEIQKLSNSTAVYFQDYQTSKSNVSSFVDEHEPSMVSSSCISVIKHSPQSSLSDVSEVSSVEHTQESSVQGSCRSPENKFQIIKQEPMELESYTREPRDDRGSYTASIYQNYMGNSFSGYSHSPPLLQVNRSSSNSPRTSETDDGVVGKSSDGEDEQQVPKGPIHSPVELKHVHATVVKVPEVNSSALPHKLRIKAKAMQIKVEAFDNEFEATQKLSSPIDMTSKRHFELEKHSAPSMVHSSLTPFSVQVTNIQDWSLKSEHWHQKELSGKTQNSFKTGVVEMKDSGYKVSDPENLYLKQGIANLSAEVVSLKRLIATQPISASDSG
UniProt O75438, whole entry, looked up: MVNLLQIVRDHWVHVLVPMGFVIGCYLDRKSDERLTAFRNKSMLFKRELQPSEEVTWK
UniProt Q7Z628: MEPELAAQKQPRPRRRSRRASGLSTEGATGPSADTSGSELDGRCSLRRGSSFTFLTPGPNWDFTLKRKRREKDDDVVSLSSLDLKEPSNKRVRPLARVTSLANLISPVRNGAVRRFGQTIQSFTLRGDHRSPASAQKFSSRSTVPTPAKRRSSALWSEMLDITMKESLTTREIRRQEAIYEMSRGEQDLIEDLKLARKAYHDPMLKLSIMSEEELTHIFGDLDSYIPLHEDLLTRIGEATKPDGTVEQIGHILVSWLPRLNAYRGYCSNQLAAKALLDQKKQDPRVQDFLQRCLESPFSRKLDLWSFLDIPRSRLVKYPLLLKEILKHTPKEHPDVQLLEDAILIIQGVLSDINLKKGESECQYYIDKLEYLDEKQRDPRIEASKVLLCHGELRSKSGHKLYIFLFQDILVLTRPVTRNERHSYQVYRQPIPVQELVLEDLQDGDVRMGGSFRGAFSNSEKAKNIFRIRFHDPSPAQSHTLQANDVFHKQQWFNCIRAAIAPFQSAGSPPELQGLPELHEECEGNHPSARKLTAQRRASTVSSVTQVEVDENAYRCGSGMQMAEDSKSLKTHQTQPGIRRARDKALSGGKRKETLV

Columns and labels:
Assay in all cases: log2 fold change, soluble protein after heating vs DMSO (PISA); higher = thermal stabilisation; K562 lysate, 10 uM; active = over 0.2 and 3.5 SD of the protein, either way, in both replicates (recomputed)
saracatinib = compound: CN1CCN(CCOc2cc(OC3CCOCC3)c3c(Nc4c(Cl)ccc5c4OCO5)ncnc3c2)CC1 [saracatinib]
Outline: (§1)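 Values give the log-two fold change in thermal stability against solvent controls, from duplicates. Crude K562 extract at 1 mg/mL protein, made by dounce homogenisation in PBS pH 7.4 with 1 mM MgCl2, was treated with 10 μM compound for 30 min. After 3 min heating across 48°C-58°C, aliquots were pooled, adjusted to 0.5% NP-40 at 4°C and centrifuged at 21,000xg for 90 min. The supernatant was measured by TMTpro 16plex LC-MS/MS with channel sums equalised.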

sotrastaurin = compound: CN1CCN(c2nc(C3=C(c4c[nH]c5ccccc45)C(=O)NC3=O)c3ccccc3n2)CC1 [sotrastaurin]
Outline: as §1

[1] = compound: CCCS(=O)(=O)Nc1ccc(F)c(C(=O)c2c[nH]c3ncc(Cl)cc23)c1F
Outline: as §1

volasertib = compound: CC[C@@H]1C(=O)N(C)c2cnc(Nc3ccc(C(=O)N[C@H]4CC[C@H](N5CCN(CC6CC6)CC5)CC4)cc3OC)nc2N1C(C)C [volasertib]
Outline: as §1

[2] = compound: CCn1c(C(=O)N(C2CC2)C2CC2)cc2c3c(ncn3C)c(Nc3cc(C)n(C)n3)nc21
Outline: as §1

[3] = compound: CCn1cc(-c2ccnc3[nH]c(-c4cccc(CN(C)C)c4)cc23)c(-c2ccc(NC(=O)N(C)C)cc2)n1
Outline: as §1

[4] = compound: CN1CCC(CNc2ccc3ncc(-c4cccc(OC(F)(F)F)c4)n3n2)CC1
Outline: as §1

vemurafenib = compound: CCCS(=O)(=O)Nc1ccc(F)c(C(=O)c2c[nH]c3ncc(-c4ccc(Cl)cc4)cc23)c1F [vemurafenib]
Outline: as §1

barasertib = compound: CCN(CCCOc1ccc2c(Nc3cc(CC(=O)Nc4cccc(F)c4)[nH]n3)ncnc2c1)CCOP(=O)(O)O [barasertib]
Outline: as §1

[5] = compound: CC[C@@H]1C(=O)N(C)c2cnc(Nc3ccc(C(=O)NC4CCN(C)CC4)cc3OC)nc2N1C1CCCC1
Outline: as §1

Measured: log2 fold change

NFYC isoform 3 (UniProt Q13952)
inactive: saracatinib -0.043

NFE2L2 (UniProt Q16236)
inactive: sotrastaurin 0.16

NIN isoform 7 (UniProt Q8N4C6)
inactive: [1] 0.069 | volasertib 0.063 | [2] 0.075 | [3] 0.032 | [4] 0.022 | sotrastaurin 0.022

NDST1 (UniProt P52848)
inactive: vemurafenib -0.041 | [1] 0.141 | barasertib 0.066 | [5] -0.196 | volasertib -0.003 | [2] -0.006 | saracatinib 0.016 | sotrastaurin 0.01

NIPA1 (UniProt Q7RTP0)
inactive: vemurafenib 0.114 | [1] 0.021 | barasertib -0.017 | volasertib 0.078 | [2] 0.022 | [3] 0.165 | [4] 0.241 | sotrastaurin 0.101

NKIRAS1 (UniProt Q9NYS0)
inactive: vemurafenib 0.04 | [1] -0.239 | [5] 0.128 | volasertib -0.031 | [3] 0.284 | [4] 0.149 | saracatinib 0.131

NFIA isoform 4 (UniProt Q12857)
inactive: vemurafenib -0.03 | [1] 0.02 | barasertib -0.053 | volasertib 0.053 | [2] 0.025 | [3] -0.041 | [4] 0.1 | saracatinib 0.12 | sotrastaurin -0.039

NFIX (UniProt Q14938)
inactive: [5] 0.031

NEK8 (UniProt Q86SG6)
inactive: vemurafenib -0.089 | [2] -0.008 | [3] -0.068 | [4] -0.045

NDUFA7 (UniProt M0R0N0)
inactive: barasertib 0.016 | [3] -0.966 | [4] 0.442

NDUFAF6 (UniProt Q330K2)
inactive: [1] 0.04 | barasertib 0.094 | [5] -0.017 | volasertib -0.057 | [2] 0.145 | [3] -0.107 | [4] -0.316 | saracatinib -0.012 | sotrastaurin -0.073

NFKBIA (UniProt P25963)
inactive: vemurafenib 0.18 | [1] 0.064 | barasertib -0.007 | volasertib -0.122 | saracatinib -0.132 | sotrastaurin 0.019

NEB isoform 3 (UniProt P20929)
inactive: vemurafenib 0.126 | [1] -0.065 | barasertib 0 | volasertib 0.002 | [2] -0.153 | [3] -0.226 | [4] 0.333 | saracatinib 0.028 | sotrastaurin 0.036

NDRG2 (UniProt G3V2A6)
inactive: [1] 0.033 | barasertib 0.393 | volasertib 0.04

NLRP1 (UniProt Q9C000)
inactive: [5] -0.064 | [2] 0.034 | saracatinib 0.108 | sotrastaurin -0.292

NEMP1 (UniProt O14524)
inactive: barasertib -0.01 | sotrastaurin 0.048

NDUFC1 (UniProt O43677)
inactive: [5] 0.077 | [2] -0.082 | saracatinib 0.131

NEURL4 (UniProt Q96JN8)
inactive: vemurafenib -0.095 | [1] 0.051 | [5] -0.092 | volasertib -0.006 | [3] -0.03 | [4] -0.017 | saracatinib -0.292 | sotrastaurin 0.094

NKRF isoform 2 (UniProt O15226)
inactive: vemurafenib -0.01 | [1] 0.089 | [5] -0.023 | volasertib 0.015 | [2] -0.055 | [3] -0.016 | [4] -0.116 | saracatinib -0.043 | sotrastaurin 0.063

NLRX1 (UniProt Q86UT6)
inactive: vemurafenib 0.101 | [5] 0.064 | [3] 0.321 | [4] -0.157

NHLRC3 (UniProt Q5JS37)
inactive: vemurafenib 0.178 | [1] 0.055 | [5] 0.062 | volasertib 0.058 | [2] -0.005 | [3] -0.053 | [4] 0.022 | saracatinib 0.036 | sotrastaurin 0.068

NEU4 (UniProt C9JEA3)
inactive: vemurafenib 0.058 | barasertib -0.01 | [2] -0.106 | [3] -0.075 | [4] 0.066 | saracatinib -0.003 | sotrastaurin 0.022

NEPRO (UniProt Q6NW34)
inactive: [1] 0.02 | barasertib 0.007 | [5] 0.089 | volasertib -0.013 | [2] -0.17 | [3] 0.007 | [4] 0.038 | saracatinib -0.071 | sotrastaurin 0.046

NDFIP1 (UniProt Q9BT67)
inactive: vemurafenib 0.032 | [1] 0.071 | barasertib 0.02 | volasertib 0.014 | [2] -0.091 | [3] 0.141 | [4] -0.015 | saracatinib 0.112 | sotrastaurin 0

NECTIN2 isoform 2 (UniProt Q92692)
inactive: vemurafenib -0.125 | [1] 0.002 | [5] 0.006 | volasertib 0.041 | [2] 0.044 | [3] 0.157 | [4] -0.032 | saracatinib -0.026 | sotrastaurin 0.127

NFE2L1 (UniProt Q14494)
inactive: vemurafenib 0.055 | [5] 0.092 | [2] -0.061 | [3] 0.061 | [4] 0.083 | sotrastaurin 0.062

NDFIP2 (UniProt Q9NV92)
inactive: [2] 0.027 | [3] -0.031 | [4] 0.095 | sotrastaurin 0.17

NFAT5 isoform 4 (UniProt O94916)
inactive: barasertib -0.039 | sotrastaurin 0

NFATC4 isoform 2 (UniProt Q14934)
inactive: vemurafenib 0.081 | [1] -0.013 | barasertib 0.059 | [5] -0.05 | volasertib -0.004 | [3] 0.053 | [4] 0.068 | saracatinib 0.044 | sotrastaurin 0.026

NGDN (UniProt Q8NEJ9)
inactive: [1] -0.161 | [5] -0.059 | volasertib -0.108 | [2] -0.096 | sotrastaurin 0.054

NDUFA3 (UniProt O95167)
inactive: vemurafenib 0.011 | barasertib 0.018 | [5] -0.04 | [2] 0.061 | [3] -0.148 | [4] -0.156 | saracatinib 0.028 | sotrastaurin 0.005

Eleven consecutive records from above, for reference:
NDUFAF6 (UniProt Q330K2)
inactive: [1] 0.04 | barasertib 0.094 | [5] -0.017 | volasertib -0.057 | [2] 0.145 | [3] -0.107 | [4] -0.316 | saracatinib -0.012 | sotrastaurin -0.073

NFKBIA (UniProt P25963)
inactive: vemurafenib 0.18 | [1] 0.064 | barasertib -0.007 | volasertib -0.122 | saracatinib -0.132 | sotrastaurin 0.019

NEB isoform 3 (UniProt P20929)
inactive: vemurafenib 0.126 | [1] -0.065 | barasertib 0 | volasertib 0.002 | [2] -0.153 | [3] -0.226 | [4] 0.333 | saracatinib 0.028 | sotrastaurin 0.036

NDRG2 (UniProt G3V2A6)
inactive: [1] 0.033 | barasertib 0.393 | volasertib 0.04

NLRP1 (UniProt Q9C000)
inactive: [5] -0.064 | [2] 0.034 | saracatinib 0.108 | sotrastaurin -0.292

NEMP1 (UniProt O14524)
inactive: barasertib -0.01 | sotrastaurin 0.048

NDUFC1 (UniProt O43677)
inactive: [5] 0.077 | [2] -0.082 | saracatinib 0.131

NEURL4 (UniProt Q96JN8)
inactive: vemurafenib -0.095 | [1] 0.051 | [5] -0.092 | volasertib -0.006 | [3] -0.03 | [4] -0.017 | saracatinib -0.292 | sotrastaurin 0.094

NKRF isoform 2 (UniProt O15226)
inactive: vemurafenib -0.01 | [1] 0.089 | [5] -0.023 | volasertib 0.015 | [2] -0.055 | [3] -0.016 | [4] -0.116 | saracatinib -0.043 | sotrastaurin 0.063

NLRX1 (UniProt Q86UT6)
inactive: vemurafenib 0.101 | [5] 0.064 | [3] 0.321 | [4] -0.157

NHLRC3 (UniProt Q5JS37)
inactive: vemurafenib 0.178 | [1] 0.055 | [5] 0.062 | volasertib 0.058 | [2] -0.005 | [3] -0.053 | [4] 0.022 | saracatinib 0.036 | sotrastaurin 0.068

The results go on.

NDRG2 isoform 6 (UniProt Q9UN36)
inactive: vemurafenib -0.22 | [1] 0.046 | [5] 0.214 | volasertib 0.205 | [2] -0.026 | saracatinib -0.007

NFRKB isoform 2 (UniProt Q6P4R8)
inactive: [1] 0.009 | [5] 0.151 | volasertib 0.04 | [3] 0.021 | [4] 0.187 | sotrastaurin -0.039

NEO1 (UniProt Q92859)
inactive: barasertib 0.014 | [3] 0.054 | [4] 0.126

NLK (UniProt Q9UBE8)
inactive: vemurafenib -0.042 | [3] -0.223 | [4] -0.042

NFIL3 (UniProt Q16649)
inactive: [1] -0.058 | [5] 0.082 | volasertib -0.305 | [2] 0.087

NDUFB1 (UniProt O75438)
inactive: vemurafenib 0.052 | barasertib 0.026 | [2] 0.01 | [3] 0.073 | [4] -0.159 | saracatinib -0.11 | sotrastaurin 0.145

NEK5 (UniProt Q6P3R8)
inactive: vemurafenib -0.095 | [1] 0.003 | [5] -0.018 | volasertib -0.047 | [2] -0.007 | [3] -0.045 | [4] -0.153 | saracatinib 0.022

NET1 (UniProt Q7Z628)
inactive: vemurafenib 0.288 | [2] 0.008 | sotrastaurin 0.326
